From PubChem BioAssay AID590 (National Center for Advancing Translational Sciences (NCATS), 2007)
The campaign covered roughly 59,000 compounds. About 6,500 (11%) were called active. Inconclusive means that the source gave no clear call. Such entries were picked first, then a sample of the others. Cut-off read from the data, not from the text of the source: active = max dye-equivalent concentration above about 10 nM; inconclusive = mostly about 1.1 nM to 9.6 nM; inactive = weaker than that.

Test: qHTS Assay for Spectroscopic Profiling in A350 Spectral Region
Details: Compound autofluorescence, 340/450 nm, Alexa 350 dye-equivalents; active compounds read high

Q: Which max dye-equivalent concentration does the source give for Cc1ccc2nc3c(c(N)c2c1)CCN3c1ccccc1 here?
A: Its max dye-equivalent concentration is active: 590 nM.

Q: Which max dye-equivalent concentration does the source give for C=CCn1c(COc2ccc(Cl)cc2)nnc1SCC(=O)NCC(=O)OCC here?
A: Its max dye-equivalent concentration is inconclusive: 1.1 nM.

Q: For O=C(CC1CCCC1)Nc1nc2ccccc2[nH]1, which max dye-equivalent concentration is on record?
A: The max dye-equivalent concentration was “inactive”.

Q: For Cc1cccc(NC(=O)c2cc3ccccc3c(=O)o2)n1, which max dye-equivalent concentration is on record?
A: Its max dye-equivalent concentration is inconclusive: 7.8 nM.

Q: For CC(C)OCCCNC(=O)c1sc(=S)n(C)c1N, which max dye-equivalent concentration is on record?
A: Its max dye-equivalent concentration is inconclusive: 1.9 nM.

Q: For CCCC1=C(C(=O)OCC)C(c2ccc(O)cc2)n2ncnc2N1 (configuration not stated), which max dye-equivalent concentration is on record?
A: The max dye-equivalent concentration was “inactive”.

Q: For CC(C)(C)c1[nH]nc2c1C(c1ccncc1)C(C#N)=C(N)O2 (configuration not stated), which max dye-equivalent concentration is on record?
A: The max dye-equivalent concentration was inconclusive: 3.1 nM.

Q: With COCCn1c(=O)c(CCc2ccccc2)nc2cncnc21 as the compound, how does the max dye-equivalent concentration read?
A: Its max dye-equivalent concentration is active: 88 nM.

Q: Which max dye-equivalent concentration does the source give for COc1cccc2cc(-c3csc(CCn4nc(C)cc4C)n3)c(=O)oc12 here?
A: Its max dye-equivalent concentration is active: 38 nM.

Q: Which max dye-equivalent concentration does the source give for CNC(=O)c1cc2cc(Cl)cc(OC)c2oc1=O here?
A: The max dye-equivalent concentration was inconclusive: 3.1 nM.

Q: For O=C(c1ccco1)N1CCN(C(=O)c2cccc3c2C(=O)N(C2CCCCC2)C3)CC1, which max dye-equivalent concentration is on record?
A: Its max dye-equivalent concentration is inconclusive: 2.4 nM.

Q: Which max dye-equivalent concentration does the source give for CCOCCn1c(SCc2c(F)cccc2Cl)nc2c1c(=O)[nH]c(=O)n2C here?
A: Its max dye-equivalent concentration is inconclusive: 5.9 nM.

Q: Which max dye-equivalent concentration does the source give for CCC(C)(C)n1nnnc1C(c1cc2cc(OC)ccc2[nH]c1=O)N1CCc2ccccc21 (configuration not stated) here?
A: The max dye-equivalent concentration was inconclusive: 1.2 nM.

Q: Which max dye-equivalent concentration does the source give for O=C(Nc1cc(C(F)(F)F)ccc1N1CCOCC1)c1n[nH]c(=O)c2ccccc12 here?
A: Its max dye-equivalent concentration is “inactive”.

Q: Which max dye-equivalent concentration does the source give for COc1cc(-c2nnc3sc(Cc4ccccc4)nn23)cc(OC)c1OC here?
A: Its max dye-equivalent concentration is inconclusive: 1.7 nM.

Q: Which max dye-equivalent concentration does the source give for COCCCNc1nc(-c2ccncc2)nc2ccccc12 here?
A: Its max dye-equivalent concentration is inconclusive: 2.5 nM.

Q: Which max dye-equivalent concentration does the source give for COc1ccc(-c2cc(=O)c3ccc(O)cc3o2)cc1 here?
A: Its max dye-equivalent concentration is inconclusive: 7.1 nM.

Q: With CN(C)/C=N/c1c(C#N)cnn1-c1ncnc2sc(-c3ccccc3)cc12 as the compound, how does the max dye-equivalent concentration read?
A: The max dye-equivalent concentration was active: 44 nM.

Q: For COC(=O)C1=C(C)N(c2cccc3ccccc23)C(=O)C1, which max dye-equivalent concentration is on record?
A: The max dye-equivalent concentration was inconclusive: 1.4 nM.

Q: For COCCCNC(=O)c1c(N)n(/N=C/c2cccs2)c2nc3ccccc3nc12, which max dye-equivalent concentration is on record?
A: Its max dye-equivalent concentration is active: 42 nM.

Q: With COc1ccc(/C(O)=C2/C(=O)C(=O)N(CCN3CCOCC3)C2c2ccccn2)cc1OC (configuration not stated) as the compound, how does the max dye-equivalent concentration read?
A: Its max dye-equivalent concentration is “inactive”.

Q: With Cc1cc(OCc2nn[nH]n2)c2c(C)c(Cc3ccccc3)c(=O)oc2c1 as the compound, how does the max dye-equivalent concentration read?
A: The max dye-equivalent concentration was active: 80 nM.

Q: For COC(=O)c1c(NC(=O)c2nn(C)cc2Cl)sc2c1CCCC2, which max dye-equivalent concentration is on record?
A: Its max dye-equivalent concentration is active: 280 nM.

Q: Which max dye-equivalent concentration does the source give for CN(C(=O)COC(=O)c1ccc2c(c1)OCO2)C1CCS(=O)(=O)C1 (configuration not stated) here?
A: The max dye-equivalent concentration was inconclusive: 3.7 nM.

Q: Which max dye-equivalent concentration does the source give for COc1ccc(N(Cc2cc3ccc(C)cc3[nH]c2=O)C(C)=O)cc1 here?
A: The max dye-equivalent concentration was inconclusive: 9 nM.

Q: For Oc1c([C@H](Nc2ccccn2)c2ccccc2)ccc2cccnc12, which max dye-equivalent concentration is on record?
A: The max dye-equivalent concentration was “inactive”.

Q: With COc1ccc2[nH]cc(CCNc3ncncc3-c3ccc(N(C)C)cc3)c2c1 as the compound, how does the max dye-equivalent concentration read?
A: The max dye-equivalent concentration was “inactive”.

Q: For COCCn1c(=O)[nH]c2cc(C(=O)NCCN3CCN(c4cccc(Cl)c4)CC3)ccc2c1=O, which max dye-equivalent concentration is on record?
A: Its max dye-equivalent concentration is inconclusive: 8 nM.

Q: Which max dye-equivalent concentration does the source give for COc1cccc(-c2nnc3sc(-c4ccccn4)nn23)c1 here?
A: Its max dye-equivalent concentration is inconclusive: 3.8 nM.

Q: With O=C1CCCC2=C1C(c1ccc(Br)cc1)c1c([nH]c(=S)[nH]c1=O)N2 (configuration not stated) as the compound, how does the max dye-equivalent concentration read?
A: The max dye-equivalent concentration was inconclusive: 3.4 nM.

Q: With O=C(c1ccco1)N1CCN(C(=O)C2CCCO2)CC1 (configuration not stated) as the compound, how does the max dye-equivalent concentration read?
A: The max dye-equivalent concentration was “inactive”.

Q: For O=C(CSc1nc2ncc(Br)cc2[nH]1)Nc1ccc2c(c1)OCO2, which max dye-equivalent concentration is on record?
A: Its max dye-equivalent concentration is active: 16 nM.

Q: Which max dye-equivalent concentration does the source give for Cc1nc2ccccn2c1C(=O)NCc1ccc2c(c1)OCO2 here?
A: Its max dye-equivalent concentration is inconclusive: 1.6 nM.

Q: For O=C1OC(c2ccc(Br)cc2)=N/C1=C\N1CCCCC1, which max dye-equivalent concentration is on record?
A: Its max dye-equivalent concentration is inconclusive: 8.5 nM.

Q: Which max dye-equivalent concentration does the source give for CC1CN(CC(O)COc2ccc(C(=O)c3ccccc3)cc2)CC(C)O1 (configuration not stated) here?
A: The max dye-equivalent concentration was inconclusive: 1.4 nM.

Q: For Cc1c(N=Cc2c(O)n(Cc3ccco3)c(=O)c3ccccc23)c(=O)n(-c2ccccc2)n1C, which max dye-equivalent concentration is on record?
A: Its max dye-equivalent concentration is active: 16 nM.

Q: For COCCn1c(=O)c(-c2cccs2)nc2cnc(N3CCN(C)CC3)nc21, which max dye-equivalent concentration is on record?
A: Its max dye-equivalent concentration is active: 17 nM.

Q: With Cc1cc(C)nc(NCC(O)COc2ccccc2C)n1 (configuration not stated) as the compound, how does the max dye-equivalent concentration read?
A: Its max dye-equivalent concentration is inconclusive: 1.9 nM.

Q: For COC(=O)c1ccc2[nH]c(C)c(CN3CCCC3)c(=O)c2c1, which max dye-equivalent concentration is on record?
A: The max dye-equivalent concentration was active: 51 nM.

Q: For O=C(C(Cc1ccccc1)N1C(=O)C2C3C=CC(C3)C2C1=O)N1CCCCCC1 (configuration not stated), which max dye-equivalent concentration is on record?
A: Its max dye-equivalent concentration is “inactive”.

Q: With O=c1c2cc(N3CCOCC3)ccc2[nH]c(=S)n1CCN1CCCC1 as the compound, how does the max dye-equivalent concentration read?
A: The max dye-equivalent concentration was active: 22 nM.

Q: With O=c1[nH]cnc2scc(-c3ccc(F)cc3)c12 as the compound, how does the max dye-equivalent concentration read?
A: The max dye-equivalent concentration was inconclusive: 1.2 nM.

Q: Which max dye-equivalent concentration does the source give for CCOc1cc(C)nc(N2CCCC(C(=O)NCc3ccccc3F)C2)n1 (configuration not stated) here?
A: Its max dye-equivalent concentration is “inactive”.

Q: For O=C(COc1ccc(Cl)cc1)N1CCN(c2ncccn2)CC1, which max dye-equivalent concentration is on record?
A: Its max dye-equivalent concentration is “inactive”.

Q: For CCOCc1cc(C)[nH]c(=O)c1C#N, which max dye-equivalent concentration is on record?
A: The max dye-equivalent concentration was active: 27 nM.

Q: For COc1ccc(C2C(C(=O)N3CCC(C)CC3)c3ccccc3C(=O)N2C)cc1 (configuration not stated), which max dye-equivalent concentration is on record?
A: Its max dye-equivalent concentration is inconclusive: 3.8 nM.

Q: Which max dye-equivalent concentration does the source give for CCn1cc(C(=O)O)c(=O)c2cnc(N3CCCC3)nc21 here?
A: Its max dye-equivalent concentration is inconclusive: 1.9 nM.
